Publication PMC5932160
No constants are given. Whether binding was seen depends on the method and setting. Binding seen in cells or lysates may run through a third protein. A yes stands for co-enrichment or nearness to the bait. Other partners may have been found. For some assays here: No binding means not detected with the bait. For some assays here: Tags and fused reporters may be left off the sequences shown.

Legend:
[1] = molecular target: T1, GSrhino-SMXL7 (SMAX1-LIKE 7, N-terminal GSrhino fusion) (Arabidopsis thaliana) (UniProt O80875); assay: affinity purification with mass spectrometry; tandem affinity purification (IgG-Sepharose, rhinovirus 3C protease, streptavidin beads, desthiobiotin elution) from 25 mg total protein extract of Arabidopsis cell cultures harvested after 10 min with 1 μM rac-GR24 or acetone (mock); 4°C, 150 mM NaCl, 0.1% NP-40; LC-MS/MS with label-free quantification or normalisation on the bait level
T1 sequence: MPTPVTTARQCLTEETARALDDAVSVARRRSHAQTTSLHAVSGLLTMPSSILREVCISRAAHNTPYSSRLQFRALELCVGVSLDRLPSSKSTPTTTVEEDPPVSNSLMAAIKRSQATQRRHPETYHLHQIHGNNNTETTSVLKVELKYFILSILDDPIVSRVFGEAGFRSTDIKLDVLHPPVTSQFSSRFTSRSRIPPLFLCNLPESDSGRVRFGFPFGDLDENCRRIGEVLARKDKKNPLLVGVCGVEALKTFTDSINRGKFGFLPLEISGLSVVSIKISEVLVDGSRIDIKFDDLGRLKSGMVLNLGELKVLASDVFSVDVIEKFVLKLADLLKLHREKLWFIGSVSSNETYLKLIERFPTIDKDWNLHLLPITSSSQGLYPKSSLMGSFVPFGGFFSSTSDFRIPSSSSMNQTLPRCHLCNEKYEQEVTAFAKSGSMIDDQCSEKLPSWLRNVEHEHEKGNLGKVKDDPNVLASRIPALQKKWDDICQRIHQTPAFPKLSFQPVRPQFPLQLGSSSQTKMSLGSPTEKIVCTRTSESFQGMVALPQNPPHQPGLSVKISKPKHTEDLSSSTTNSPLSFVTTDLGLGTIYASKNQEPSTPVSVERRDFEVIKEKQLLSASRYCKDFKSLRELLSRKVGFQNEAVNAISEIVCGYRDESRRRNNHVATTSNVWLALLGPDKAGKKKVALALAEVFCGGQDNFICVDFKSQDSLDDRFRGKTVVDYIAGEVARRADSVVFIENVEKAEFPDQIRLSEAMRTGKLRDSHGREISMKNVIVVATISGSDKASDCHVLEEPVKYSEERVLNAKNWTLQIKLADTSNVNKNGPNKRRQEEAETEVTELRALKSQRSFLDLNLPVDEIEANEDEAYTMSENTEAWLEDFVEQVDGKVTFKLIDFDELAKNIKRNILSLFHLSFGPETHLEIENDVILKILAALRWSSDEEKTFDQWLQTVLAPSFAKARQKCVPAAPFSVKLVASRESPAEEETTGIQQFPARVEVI

[2] = molecular target: GSrhino-tagged ΔSMXL7 (modified SMXL7 resistant to strigolactone-induced degradation) (Arabidopsis thaliana) (UniProt O80875); assay: as above

Row | Molecule | binding [1] | binding [2]
1 | ubiquitin, endogenous | binds | 
2 | DWARF14 (D14), endogenous (protein, UniProt Q9SQR3 1-267) MSQHNILEALNVRVVGTGDRILFLAHGFGTDQSAWHLILPYFTQNYRVVLYDLVCAGSVNPDYFDFNRYTTLDPYVDDLLNIVDSLGIQNCAYVGHSVSAMIGIIASIRRPELFSKLILIGFSPRFLNDEDYHGGFEEGEIEKVFSAMEANYEAWVHGFAPLAVGADVPAAVREFSRTLFNMRPDISLFVSRTVFNSDLRGVLGLVRVPTCVIQTAKDVSVPASVAEYLRSHLGGDTTVETLKTEGHLPQLSAPAQLAQFLRRALPR |  | no binding
